US20070049538A1, “METHODS FOR USING CUCURBITACIN COMPOUNDS” (SOUTH DAKOTA STATE UNIVERSITY, priority 2005, published 2007)

Legend:
[1] = tested on: HepG2 cells; settings: ratio of IC50 and EC50, HepG2
Source text: Experimental conditions were standardized on silybin. […]
The ratio of IC50-to-EC50 (hereafter T/A) is also indicated in this table, which gives the margin between toxic and cytoprotective concentrations.

[2] = tested on: HSC-T6 cells; assay: Serum-driven HSC-T6 proliferation, experiment 3 (24 h, proliferating cells); assay type: cell-based, rat; settings: HSC-T6 experiment 3
Method: To overcome this problem, the amount of incubation time was increased to 24 h, and cucurbitacin activity measured on starved (Exp. 2) or proliferative (Exp. 3) cells (Table 8). Cells turned quiescent when serum was not supplemented for one day (Exp. 2). Activity of a few compounds was monitored on quiescent cells, and their activity compared to the ones measured on proliferating cells (Exp. 3).
We established several experimental conditions such as 4 hours of incubation time with cucurbitacin, and 2 day cell incubation with fresh media after challenging with cucurbitacin (Exp. 1). Other experiments involved addition of cucurbitacin for 24 hours over starved cells (Exp. 2) vs. proliferating cells (Exp. 3), and one day incubation of cells with fresh media after challenge. The 4 hour incubation period with cucurbitacin triggered anti-proliferation effect. This effect, however, was hindered by a second cycle of cell proliferation during the two-day cell growth period (see silybin, E and I glucosides, and for I-nPr). […] Because of that, the challenge time was increased to 24 hours (Exp. 2 and 3).
In experiment 3, only 40% of the cells divided. The ratio of EC50 values for exp. 2 and exp. 3 varied between 3.6 and 12.7. This may indicate differential cytotoxicity of silybin and cucurbitacin analogs over quiescent and active stellate cells. In other words, compounds show higher anti-proliferative activity on active cells than on quiescent cells.

[3] = toxic over antiproliferation concentration (IC50/EC50)

Molecule | T/A [1] | T/A [2, 3] | T/A [2]
CC(C)(O)/C=C/C(=O)[C@](C)(O)[C@H]1[C@H](O)C[C@@]2(C)[C@@H]3CC=C4[C@@H](C[C@H](O)C(=O)C4(C)C)[C@]3(C)C(=O)C[C@]12C [D, cucurbitacin D] | 8.6 | 344 | –
CC(=O)OC(C)(C)/C=C/C(=O)[C@](C)(O)[C@H]1[C@H](O)C[C@@]2(C)[C@@H]3CC=C4[C@@H](C=C(O[C@@H]5O[C@H](CO)[C@@H](O)[C@H](O)[C@H]5O)C(=O)C4(C)C)[C@]3(C)C(=O)C[C@]12C [E-Gluc, cucurbitacin E glucoside] | 5.0 | 29 | Medium to high
CC(=O)OC(C)(C)/C=C/C(=O)[C@](C)(O)[C@H]1[C@H](O)C[C@@]2(C)[C@@H]3CC=C4[C@H](C[C@H](O)C(=O)C4(C)C)[C@]3(C)C(=O)C[C@]12C [B, cucurbitacin B] | 2.6 | 180 | –
CC(C)OC1=CC2C(=CCC3C2(C)C(=O)CC2(C)C(C(C)(O)C(=O)C=CC(C)(C)O)C(O)CC32C)C(C)(C)C1=O (stereo not shown) [I-iPr] | – | 9 | –
CCOC1=CC2C(=CCC3C2(C)C(=O)CC2(C)C(C(C)(O)C(=O)C=CC(C)(C)OC(C)=O)C(O)CC32C)C(C)(C)C1=O (stereo not shown) [E-Et] | – | 13 | –
CCCOC1=CC2C(=CCC3C2(C)C(=O)CC2(C)C(C(C)(O)C(=O)C=CC(C)(C)O)C(O)CC32C)C(C)(C)C1=O (stereo not shown) [I-nPr] | – | 8 | –
CC(C)(O)/C=C/C(=O)C(C)(O)C1C(O)CC2(C)C3CC=C4C(CC(=O)C(O)C4(C)C)C3(C)C(=O)CC12C (stereo not shown) [iso-D] | 5.8 | 139 | –
CC(C)(O)/C=C/C(=O)[C@](C)(O)[C@H]1[C@H](O)C[C@@]2(C)[C@@H]3CC=C4[C@@H](C=C(O)C(=O)C4(C)C)[C@]3(C)C(=O)C[C@]12C [I, cucurbitacin I] | 5.0 | 150 | –
CC(=O)OC(C)(C)C=CC(=O)C(C)(O)C1C(O)CC2(C)C3CC=C4C(C=C(OC(C)C)C(=O)C4(C)C)C3(C)C(=O)CC12C (stereo not shown) [E-iPr] | – | 8 | –
CC(C)(O)/C=C/C(=O)[C@](C)(O)C1[C@H](O)C[C@@]2(C)C3CC=C4C(C=C(O[C@@H]5O[C@H](CO)[C@@H](O)[C@H](O)[C@H]5O)C(=O)C4(C)C)[C@]3(C)C(=O)C[C@]12C (stereo partly shown) [I-Gluc, cucurbitacin I glucoside] | – | 64 | Medium to high
COC1=CC2C(=CCC3C2(C)C(=O)CC2(C)C(C(C)(O)C(=O)C=CC(C)(C)O)C(O)CC32C)C(C)(C)C1=O (stereo not shown) [I-Me] | 2.9 | 62 | Medium to high
Cucurbitacin E-Me ether | – | 33 | Medium to high
